Data published in patent US20190262431A1, “CBL-FAMILY INHIBITOR COMPRISING A CBL-FAMILY TKB DOMAIN BINDING PEPTIDE FOR THE PREVENTION OR TREATMENT OF DISEASES” (IMBA - INSTITUT FÜR MOLEKULARE BIOTECHNOLOGIE GMBH, priority 2016, published 2019).
Part of at least one peptide drawing is inferred or uncertain, most often the ends.

System: B16-SIY melanoma cells
Experiment: B16-SIY in vivo tumor model
Design: species or system mouse
Conditions: C57Bl/6 mice; 100 μg i.p. every other day; versus vehicle
Method: B16-SIY tumor cells as described in (Spranger, 2014) were cultured in DMEM cell culture media (Gibco) supplemented with 10% fetal bovine serum (Sigma), L-Glutamine (Thermo Fisher), Penicillin and Streptomycin (Thermo Fisher). 10^6 tumor cells were transplanted intradermally into C57Bl/6 mice. Mice were injected intraperitoneally with 100 μg of the indicated peptides or vehicle control every other day starting 24 h after tumor cell inoculation. Bodyweight and tumor volume were measured at the indicated time points, subsequently.

`CC[C@H](C)[C@H](NC(=O)[C@H](CCCCN)NC(=O)[C@@H](NC(=O)[C@H](CCC(N)=O)NC(=O)[C@H](CCCNC(=N)N)NC(=O)[C@@H](N)CC(=O)O)[C@@H](C)CC)C(=O)N[C@@H](Cc1c[nH]c2ccccc12)C(=O)N[C@@H](Cc1ccccc1)C(=O)N[C@@H](CCC(N)=O)C(=O)N[C@@H](CC(N)=O)C(=O)N[C@@H](CCCNC(=N)N)C(=O)N[C@@H](CCCNC(=N)N)C(=O)N[C@@H](CCSC)C(=O)N[C@@H](CCCCN)C(=O)N[C@@H](Cc1c[nH]c2ccccc12)C(=O)N[C@@H](CCCCN)C(=O)N[C@@H](CCCCN)C(=O)N[C@@H](CO)C(=O)N[C@H](C(=O)N1CCC[C@H]1C(=O)N[C@@H](CC(N)=O)C(=O)N[C@@H](Cc1ccccc1)C(=O)NCC(=O)N[C@H](C(=O)N[C@@H](Cc1ccc(OP(=O)(O)O)cc1)C(=O)NCC(=O)N[C@H](C(=O)N[C@@H](CO)C(=O)N1CCC[C@H]1C(=O)N[C@@H](Cc1c[nH]c2ccccc12)C(=O)NCC(=O)N1CCC[C@H]1C(=O)N[C@@H](CCC(=O)O)C(=O)O)[C@@H](C)O)C(C)C)[C@@H](C)O` [M2] was tested, and the tumor volume was “but not”.
